Laboratory results reported in article PMC12848007.
These are yes or no findings as the source states them, for the method shown. In cells and extracts the contact can be indirect. Some entries that bind do so weakly or less than the wild type.

The chains behind the UniProt entries cited, without tags or fusion partners.
UniProt Q13620: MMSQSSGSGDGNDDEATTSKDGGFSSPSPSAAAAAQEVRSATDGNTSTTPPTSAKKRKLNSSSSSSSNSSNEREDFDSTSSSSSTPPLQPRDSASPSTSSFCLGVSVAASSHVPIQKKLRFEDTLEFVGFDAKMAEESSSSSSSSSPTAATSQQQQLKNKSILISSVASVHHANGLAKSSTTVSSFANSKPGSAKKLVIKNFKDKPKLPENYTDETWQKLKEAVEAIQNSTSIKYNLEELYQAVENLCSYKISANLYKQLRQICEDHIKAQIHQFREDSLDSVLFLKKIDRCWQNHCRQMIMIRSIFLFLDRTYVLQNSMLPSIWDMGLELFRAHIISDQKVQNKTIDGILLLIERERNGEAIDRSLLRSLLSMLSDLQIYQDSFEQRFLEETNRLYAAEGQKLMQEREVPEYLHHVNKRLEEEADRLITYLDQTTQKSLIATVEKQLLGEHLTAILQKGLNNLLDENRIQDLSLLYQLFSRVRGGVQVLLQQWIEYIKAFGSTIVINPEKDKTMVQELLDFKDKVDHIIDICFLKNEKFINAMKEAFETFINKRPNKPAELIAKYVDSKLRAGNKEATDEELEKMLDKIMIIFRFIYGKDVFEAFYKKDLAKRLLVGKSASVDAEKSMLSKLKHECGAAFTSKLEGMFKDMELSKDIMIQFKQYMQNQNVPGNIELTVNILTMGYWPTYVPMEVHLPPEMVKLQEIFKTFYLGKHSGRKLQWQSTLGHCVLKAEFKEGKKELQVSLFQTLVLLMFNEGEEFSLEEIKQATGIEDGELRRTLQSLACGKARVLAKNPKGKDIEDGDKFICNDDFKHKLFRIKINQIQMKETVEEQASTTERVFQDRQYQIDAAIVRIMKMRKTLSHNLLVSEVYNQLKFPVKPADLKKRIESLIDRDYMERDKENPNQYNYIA
UniProt Q16531: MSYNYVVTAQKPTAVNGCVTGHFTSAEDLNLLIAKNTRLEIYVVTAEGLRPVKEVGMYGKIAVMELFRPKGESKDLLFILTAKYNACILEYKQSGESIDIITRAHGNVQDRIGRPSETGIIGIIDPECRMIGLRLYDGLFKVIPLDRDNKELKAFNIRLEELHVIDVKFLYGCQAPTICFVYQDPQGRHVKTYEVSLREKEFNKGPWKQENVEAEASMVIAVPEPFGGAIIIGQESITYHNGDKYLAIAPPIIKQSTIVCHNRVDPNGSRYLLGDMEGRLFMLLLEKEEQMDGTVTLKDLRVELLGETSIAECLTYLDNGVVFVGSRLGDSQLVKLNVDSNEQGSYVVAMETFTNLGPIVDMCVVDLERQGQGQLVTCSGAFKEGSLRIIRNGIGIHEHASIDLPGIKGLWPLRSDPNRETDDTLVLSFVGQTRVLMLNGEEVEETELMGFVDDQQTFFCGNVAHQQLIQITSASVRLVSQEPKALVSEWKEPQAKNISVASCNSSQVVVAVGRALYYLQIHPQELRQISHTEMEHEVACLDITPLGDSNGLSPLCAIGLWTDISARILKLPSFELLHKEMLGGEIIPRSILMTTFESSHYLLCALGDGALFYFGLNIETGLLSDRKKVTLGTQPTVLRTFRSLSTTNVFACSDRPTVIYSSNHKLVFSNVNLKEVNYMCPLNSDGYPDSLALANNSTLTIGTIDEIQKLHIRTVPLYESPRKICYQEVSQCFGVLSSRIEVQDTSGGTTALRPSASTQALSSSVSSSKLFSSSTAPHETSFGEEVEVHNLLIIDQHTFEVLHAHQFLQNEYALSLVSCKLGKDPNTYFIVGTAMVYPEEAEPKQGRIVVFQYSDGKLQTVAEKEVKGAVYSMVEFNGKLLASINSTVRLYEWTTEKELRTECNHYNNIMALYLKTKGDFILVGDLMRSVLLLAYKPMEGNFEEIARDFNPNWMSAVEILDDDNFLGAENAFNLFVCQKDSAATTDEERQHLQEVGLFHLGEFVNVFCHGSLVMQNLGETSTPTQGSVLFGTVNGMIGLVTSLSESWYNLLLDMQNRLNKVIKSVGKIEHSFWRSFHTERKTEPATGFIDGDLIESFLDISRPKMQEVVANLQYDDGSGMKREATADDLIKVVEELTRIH
UniProt Q9NZJ0: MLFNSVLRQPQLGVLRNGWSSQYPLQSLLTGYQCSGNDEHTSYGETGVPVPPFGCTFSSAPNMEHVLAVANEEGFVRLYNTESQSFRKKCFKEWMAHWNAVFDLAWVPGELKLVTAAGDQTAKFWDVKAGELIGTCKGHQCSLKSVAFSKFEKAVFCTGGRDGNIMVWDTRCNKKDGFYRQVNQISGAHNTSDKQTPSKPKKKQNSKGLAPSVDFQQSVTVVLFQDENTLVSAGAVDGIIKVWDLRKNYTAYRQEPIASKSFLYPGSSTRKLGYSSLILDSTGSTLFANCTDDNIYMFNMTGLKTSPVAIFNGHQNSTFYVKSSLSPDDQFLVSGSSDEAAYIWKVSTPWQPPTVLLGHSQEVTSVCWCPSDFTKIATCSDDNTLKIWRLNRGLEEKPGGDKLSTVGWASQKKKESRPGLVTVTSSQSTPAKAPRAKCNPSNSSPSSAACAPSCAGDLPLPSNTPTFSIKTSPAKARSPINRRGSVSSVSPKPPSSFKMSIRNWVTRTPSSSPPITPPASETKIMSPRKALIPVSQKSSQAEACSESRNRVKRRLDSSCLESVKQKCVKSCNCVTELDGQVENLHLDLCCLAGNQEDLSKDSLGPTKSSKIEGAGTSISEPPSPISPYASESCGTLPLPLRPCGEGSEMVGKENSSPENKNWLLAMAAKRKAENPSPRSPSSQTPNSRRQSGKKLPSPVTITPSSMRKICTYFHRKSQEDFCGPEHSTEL
UniProt P35637: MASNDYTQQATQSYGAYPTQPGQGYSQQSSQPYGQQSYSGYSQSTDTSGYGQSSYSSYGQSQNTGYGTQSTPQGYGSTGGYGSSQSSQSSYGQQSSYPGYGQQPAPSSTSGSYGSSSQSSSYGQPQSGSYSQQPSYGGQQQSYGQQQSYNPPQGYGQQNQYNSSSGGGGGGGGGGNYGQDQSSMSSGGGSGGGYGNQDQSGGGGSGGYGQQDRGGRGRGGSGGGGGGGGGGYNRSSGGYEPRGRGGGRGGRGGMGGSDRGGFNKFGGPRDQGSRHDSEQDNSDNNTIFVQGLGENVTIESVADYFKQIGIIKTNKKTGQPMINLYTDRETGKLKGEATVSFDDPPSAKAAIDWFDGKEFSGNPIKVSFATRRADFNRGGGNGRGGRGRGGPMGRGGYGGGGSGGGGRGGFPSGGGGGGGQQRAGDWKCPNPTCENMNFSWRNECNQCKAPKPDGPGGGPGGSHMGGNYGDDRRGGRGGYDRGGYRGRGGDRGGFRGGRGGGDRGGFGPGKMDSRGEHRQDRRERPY

Target: Flag-tagged CUL4B (human) (UniProt Q13620)
Experiment: co-IP; Flag-tagged CUL4B transfected into Huh7 cells; immunoprecipitation with anti-Flag M2 affinity resin, then western blotting

Substance | binding
DDB1 (from UniProt Q16531 1-1140) | binds
DTL (from UniProt Q9NZJ0 1-730) | binds
Fused in sarcoma (FUS) (from UniProt P35637 1-526) | binds
